PubChem BioAssay AID1259331 – Drosophila RNAi Screening Center, 2017
This is a random part of about 3,100 reagents. Of all reagents, 126 (4.1%) got an active call. 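Calls are per reagent; zinc was so toxic that few knock-downs lowered ATP further, so most hits raise ATP.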 Raw values vary from plate to plate and are shown uncorrected. The numbers tell different reagents against one gene apart. A plus sign joins genes that one reagent is predicted to hit. Not given: the amount of reagent.

Assay: 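Knock-downs that alter ATP level after a high zinc chloride dose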 (primary screen)
Cell system: Drosophila S2R+ cells
Reagents: long dsRNA against Drosophila genes
Time to read-out: 5 days (4 days knock-down, then 1 day zinc)
Treatment: zinc chloride at 15 mM final level for 1 day
Measurement: 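Total cellular ATP measured by luciferase luminescence as a viability proxy, turned into Z scores from three plate copies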
Reading the numbers: mean Z score: higher = more ATP than other wells, better survival under zinc; ATP luminescence: higher = more ATP, more viable cells
Call rule: 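a reagent is called a hit when its Z score is above 1.5 or below -1.5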
Meaning of the calls: active = hit, ATP up or down; inactive = not a hit

| gene | reagent | mean Z score | ATP luminescence, replicate 1 | ATP luminescence, replicate 2 | outcome |
| --- | --- | --- | --- | --- | --- |
| CHOp24 | 1 | -0.311 | 42182 | 44977 | inactive |
| CHOp24 | 2 | 0.476 | 65228 | 50978 | inactive |
| Rh3 | 1 | -0.321 | 40056 | 41483 | inactive |
| hec | 1 | 0.845 | 82328 | 77731 | inactive |
| hec | 2 | -0.401 | 56413 | 55882 | inactive |
| Start1 | 1 | 0.062 | 26037 | 40045 | inactive |
| Start1 | 2 | -0.559 | 59723 | 45714 | inactive |
| nAChRbeta1 | 1 | 0.296 | 45379 | 44600 | inactive |
| nAChRbeta1 | 2 | -0.453 | 24131 | 30027 | inactive |
| Gr23a | 1 | -0.344 | 42508 | 39734 | inactive |
| Gr23a | 2 | -0.101 | 59517 | 54645 | inactive |
| CG8323 | 1 | -0.116 | 64241 | 73323 | inactive |
| Ir7f | 1 | 0.182 | 43639 | 43605 | inactive |
| JTBR | 1 | 0.368 | 74215 | 82757 | inactive |
| Tmtc3 | 1 | -0.111 | 29393 | 31005 | inactive |
| PGRP-LF + UGP | 1 | -0.0523 | 73769 | 62621 | inactive |
| AQP | 1 | -0.31 | 61747 | 68641 | inactive |
| AQP | 2 | -0.245 | 50367 | 44514 | inactive |
| Octalpha2R | 1 | 0.578 | 35822 | 66548 | inactive |
| Octalpha2R | 2 | -0.336 | 36096 | 54030 | inactive |
| Tsp42Ec | 1 | 0.0138 | 88538 | 71934 | inactive |
| Tsp42Ec | 2 | -0.686 | 60512 | 40553 | inactive |
| Or45a | 1 | -0.201 | 93170 | 70547 | inactive |
| Or45a | 2 | -0.333 | 47566 | 62913 | inactive |
| nompC | 1 | -0.138 | 46863 | 41933 | inactive |
| nompC | 2 | -0.721 | 45440 | 46691 | inactive |
| LBR | 1 | 0.0536 | 31125 | 33171 | inactive |
| LBR | 2 | -0.297 | 54493 | 59191 | inactive |
| Surf4 | 1 | -0.716 | 32462 | 45954 | inactive |
| Surf4 | 2 | -0.269 | 47206 | 61504 | inactive |
| pcx | 1 | -0.293 | 35170 | 43725 | inactive |
| pcx | 2 | -0.926 | 52521 | 48817 | inactive |
| Tmx3 | 1 | 0.0284 | 40159 | 27734 | inactive |
| Tmx3 | 2 | -0.188 | 63204 | 52572 | inactive |
| fend | 1 | -0.32 | 62021 | 67457 | inactive |
| fend | 2 | -0.897 | 49898 | 52487 | inactive |
| Smvt | 1 | 0.04 | 65229 | 68229 | inactive |
| Smvt | 2 | -0.00604 | 56208 | 61366 | inactive |
| CG15096 | 1 | -0.0419 | 30387 | 31387 | inactive |
| CG15096 | 2 | 0.203 | 65605 | 63427 | inactive |
| Ent2 | 1 | -1.11 | 46314 | 42268 | inactive |
| Ent2 | 2 | -0.323 | 52487 | 50772 | inactive |
| Tim17b1 | 1 | 0.308 | 80647 | 67920 | inactive |
| Tim17b1 | 2 | 0.191 | 56019 | 61987 | inactive |
| CG8925 | 1 | 0.00185 | 37896 | 60958 | inactive |
| CG8925 | 2 | -0.112 | 40108 | 41599 | inactive |
| glec | 1 | -0.83 | 32599 | 46468 | inactive |
| glec | 2 | -0.478 | 44685 | 41651 | inactive |
| CG13801 | 1 | -0.391 | 66493 | 72191 | inactive |
| wfs1 | 1 | 0.157 | 34124 | 59260 | inactive |
| mthl2 | 1 | -0.287 | 70665 | 57940 | inactive |
| mthl2 | 2 | -0.54 | 43474 | 50315 | inactive |
| CG5880 | 1 | 0.111 | 42868 | 50669 | inactive |
| CG5880 | 2 | -0.254 | 53327 | 51887 | inactive |
| slo | 1 | -0.187 | 41050 | 46314 | inactive |
| Sr-CI | 1 | 0.739 | 64519 | 44720 | inactive |
| Sr-CI | 2 | 0.509 | 61095 | 66823 | inactive |
| Glut3 | 1 | -0.64 | 35370 | 50618 | inactive |
| Glut3 | 2 | 0.318 | 61678 | 70716 | inactive |
| Shawl | 1 | 1.66 | 77148 | 62930 | active |
| Shawl | 2 | 0.409 | 83299 | 69052 | inactive |
| Shawl | 3 | -0.615 | 54630 | 49155 | inactive |
| Gr63a | 1 | -0.224 | 74112 | 57191 | inactive |
| MsR2 | 1 | -0.0442 | 70079 | 71539 | inactive |
| MsR2 | 2 | 0.507 | 61129 | 63684 | inactive |
| MsR2 | 3 | -0.172 | 60392 | 52315 | inactive |
| Inx7 | 1 | -0.232 | 64726 | 59616 | inactive |
| Inx7 | 2 | -0.566 | 35856 | 58111 | inactive |
| CG14605 | 1 | 0.0169 | 75640 | 60238 | inactive |
| CG14605 | 2 | 0.0866 | 61181 | 64302 | inactive |
| rho-7 | 1 | 0.136 | 80214 | 80338 | inactive |
| CG7514 | 1 | -0.123 | 74678 | 58780 | inactive |
| CG7514 | 2 | -0.336 | 42405 | 46194 | inactive |
| ATPsynC | 1 | 0.636 | 51784 | 55806 | inactive |
| ATPsynC | 2 | 0.781 | 58917 | 61970 | inactive |
| Ir60b | 1 | -0.12 | 49829 | 41413 | inactive |
| CG11110 | 1 | 0.423 | 75467 | 80270 | inactive |
| CG11110 | 2 | 1.23 | 86239 | 67715 | inactive |
| PGRP-SB1 | 1 | -0.0278 | 61181 | 66008 | inactive |
| CG5021 | 1 | 0.254 | 73906 | 70027 | inactive |
| CG5021 | 2 | 0.631 | 72260 | 68006 | inactive |
| CG15890 | 1 | 0.853 | 76033 | 84455 | inactive |
| ClC-a | 1 | 4.43 | 69996 | 1.13e5 | active |
| ClC-a | 2 | 0.895 | 47343 | 68949 | inactive |
| ClC-a | 3 | 1.66 | 64662 | 65211 | active |
| COX4 | 1 | -0.207 | 54420 | 52116 | inactive |
| COX4 | 2 | -0.645 | 57151 | 42645 | inactive |

Part of the list above, set out differently:
{"gene":"slo","reagent":1,"mean Z score":-0.187,"ATP luminescence, replicate 1":41050,"ATP luminescence, replicate 2":46314,"outcome":"inactive"}
{"gene":"Sr-CI","reagent":1,"mean Z score":0.739,"ATP luminescence, replicate 1":64519,"ATP luminescence, replicate 2":44720,"outcome":"inactive"}
{"gene":"Sr-CI","reagent":2,"mean Z score":0.509,"ATP luminescence, replicate 1":61095,"ATP luminescence, replicate 2":66823,"outcome":"inactive"}
{"gene":"Glut3","reagent":1,"mean Z score":-0.64,"ATP luminescence, replicate 1":35370,"ATP luminescence, replicate 2":50618,"outcome":"inactive"}
{"gene":"Glut3","reagent":2,"mean Z score":0.318,"ATP luminescence, replicate 1":61678,"ATP luminescence, replicate 2":70716,"outcome":"inactive"}
{"gene":"Shawl","reagent":1,"mean Z score":1.66,"ATP luminescence, replicate 1":77148,"ATP luminescence, replicate 2":62930,"outcome":"active"}
{"gene":"Shawl","reagent":2,"mean Z score":0.409,"ATP luminescence, replicate 1":83299,"ATP luminescence, replicate 2":69052,"outcome":"inactive"}
{"gene":"Shawl","reagent":3,"mean Z score":-0.615,"ATP luminescence, replicate 1":54630,"ATP luminescence, replicate 2":49155,"outcome":"inactive"}
{"gene":"Gr63a","reagent":1,"mean Z score":-0.224,"ATP luminescence, replicate 1":74112,"ATP luminescence, replicate 2":57191,"outcome":"inactive"}
{"gene":"MsR2","reagent":1,"mean Z score":-0.0442,"ATP luminescence, replicate 1":70079,"ATP luminescence, replicate 2":71539,"outcome":"inactive"}
{"gene":"MsR2","reagent":2,"mean Z score":0.507,"ATP luminescence, replicate 1":61129,"ATP luminescence, replicate 2":63684,"outcome":"inactive"}
